Measurements as given in the supplement of paper PMC10849652.
Some of the results follow.

Protein sequences, listed by entry. Tags and fused reporters are not part of them. Lines headed by an entry give the natural chain unless they say otherwise; changes in a name come on top.
UniProt Q9Y2B1: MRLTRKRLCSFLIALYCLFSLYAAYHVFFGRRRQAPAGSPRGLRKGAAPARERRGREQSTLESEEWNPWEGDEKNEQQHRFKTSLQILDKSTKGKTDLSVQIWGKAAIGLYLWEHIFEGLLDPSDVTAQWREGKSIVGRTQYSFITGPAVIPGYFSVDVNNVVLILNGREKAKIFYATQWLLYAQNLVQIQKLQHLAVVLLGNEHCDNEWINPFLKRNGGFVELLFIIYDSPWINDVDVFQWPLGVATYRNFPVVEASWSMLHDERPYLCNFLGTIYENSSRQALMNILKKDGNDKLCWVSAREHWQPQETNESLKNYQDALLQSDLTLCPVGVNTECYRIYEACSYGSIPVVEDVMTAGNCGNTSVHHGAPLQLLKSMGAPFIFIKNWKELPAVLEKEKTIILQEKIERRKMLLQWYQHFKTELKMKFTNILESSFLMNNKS
UniProt P28702: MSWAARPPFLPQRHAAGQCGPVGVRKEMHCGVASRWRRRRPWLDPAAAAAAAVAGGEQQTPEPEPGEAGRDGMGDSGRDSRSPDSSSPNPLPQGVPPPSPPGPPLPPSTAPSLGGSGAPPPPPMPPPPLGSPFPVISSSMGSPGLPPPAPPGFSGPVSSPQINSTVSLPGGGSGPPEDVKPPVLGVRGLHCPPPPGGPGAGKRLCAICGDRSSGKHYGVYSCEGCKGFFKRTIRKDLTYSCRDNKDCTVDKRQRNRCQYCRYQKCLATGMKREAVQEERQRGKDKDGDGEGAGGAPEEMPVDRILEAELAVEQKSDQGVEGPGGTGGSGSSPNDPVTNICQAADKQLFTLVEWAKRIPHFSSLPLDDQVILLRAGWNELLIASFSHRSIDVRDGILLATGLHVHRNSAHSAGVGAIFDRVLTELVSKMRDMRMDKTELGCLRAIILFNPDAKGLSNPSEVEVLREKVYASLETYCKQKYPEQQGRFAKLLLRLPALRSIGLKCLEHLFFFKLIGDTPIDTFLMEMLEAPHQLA
UniProt A6ZKI3: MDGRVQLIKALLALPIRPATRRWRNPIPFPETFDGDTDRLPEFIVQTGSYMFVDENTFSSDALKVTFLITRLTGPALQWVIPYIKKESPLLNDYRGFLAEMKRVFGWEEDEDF
UniProt Q9UBS0: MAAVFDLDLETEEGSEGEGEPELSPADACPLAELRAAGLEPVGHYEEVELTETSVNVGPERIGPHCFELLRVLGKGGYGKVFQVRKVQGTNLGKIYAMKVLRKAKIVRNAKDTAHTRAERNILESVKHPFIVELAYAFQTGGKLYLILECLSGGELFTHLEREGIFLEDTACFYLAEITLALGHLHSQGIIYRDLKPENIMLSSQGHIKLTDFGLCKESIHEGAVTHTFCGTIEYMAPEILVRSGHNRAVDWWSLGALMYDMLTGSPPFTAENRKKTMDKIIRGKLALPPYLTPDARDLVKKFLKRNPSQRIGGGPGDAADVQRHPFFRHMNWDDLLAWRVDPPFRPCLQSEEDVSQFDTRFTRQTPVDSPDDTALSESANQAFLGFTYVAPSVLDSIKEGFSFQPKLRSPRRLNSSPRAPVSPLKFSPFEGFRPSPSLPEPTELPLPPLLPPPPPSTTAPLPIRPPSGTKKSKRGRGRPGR
UniProt Q6P087: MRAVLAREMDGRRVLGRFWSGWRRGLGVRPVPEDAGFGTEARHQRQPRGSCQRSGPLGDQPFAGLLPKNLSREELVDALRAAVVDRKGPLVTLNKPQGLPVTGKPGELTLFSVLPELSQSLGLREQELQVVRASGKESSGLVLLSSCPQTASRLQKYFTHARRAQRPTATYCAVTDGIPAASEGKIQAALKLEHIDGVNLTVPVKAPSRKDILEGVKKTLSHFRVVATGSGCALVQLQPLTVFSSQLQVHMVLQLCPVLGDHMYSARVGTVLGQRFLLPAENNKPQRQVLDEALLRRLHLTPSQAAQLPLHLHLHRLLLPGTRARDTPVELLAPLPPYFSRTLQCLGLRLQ
UniProt P57060: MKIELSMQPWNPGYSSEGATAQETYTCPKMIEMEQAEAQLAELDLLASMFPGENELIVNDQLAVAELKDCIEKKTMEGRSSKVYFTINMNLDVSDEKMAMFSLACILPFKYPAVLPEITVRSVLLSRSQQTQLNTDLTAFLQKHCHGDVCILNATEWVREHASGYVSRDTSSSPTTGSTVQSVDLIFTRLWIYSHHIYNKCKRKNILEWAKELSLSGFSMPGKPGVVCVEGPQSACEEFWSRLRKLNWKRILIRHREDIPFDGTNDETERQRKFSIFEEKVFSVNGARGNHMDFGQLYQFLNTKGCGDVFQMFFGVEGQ
UniProt Q96FQ6: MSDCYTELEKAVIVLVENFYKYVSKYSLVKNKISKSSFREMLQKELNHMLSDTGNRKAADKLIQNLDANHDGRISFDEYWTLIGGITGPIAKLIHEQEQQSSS
UniProt P60903, whole entry, looked up: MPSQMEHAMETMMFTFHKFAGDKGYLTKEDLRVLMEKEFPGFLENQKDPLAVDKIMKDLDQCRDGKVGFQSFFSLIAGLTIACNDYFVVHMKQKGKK
UniProt Q8WXA3: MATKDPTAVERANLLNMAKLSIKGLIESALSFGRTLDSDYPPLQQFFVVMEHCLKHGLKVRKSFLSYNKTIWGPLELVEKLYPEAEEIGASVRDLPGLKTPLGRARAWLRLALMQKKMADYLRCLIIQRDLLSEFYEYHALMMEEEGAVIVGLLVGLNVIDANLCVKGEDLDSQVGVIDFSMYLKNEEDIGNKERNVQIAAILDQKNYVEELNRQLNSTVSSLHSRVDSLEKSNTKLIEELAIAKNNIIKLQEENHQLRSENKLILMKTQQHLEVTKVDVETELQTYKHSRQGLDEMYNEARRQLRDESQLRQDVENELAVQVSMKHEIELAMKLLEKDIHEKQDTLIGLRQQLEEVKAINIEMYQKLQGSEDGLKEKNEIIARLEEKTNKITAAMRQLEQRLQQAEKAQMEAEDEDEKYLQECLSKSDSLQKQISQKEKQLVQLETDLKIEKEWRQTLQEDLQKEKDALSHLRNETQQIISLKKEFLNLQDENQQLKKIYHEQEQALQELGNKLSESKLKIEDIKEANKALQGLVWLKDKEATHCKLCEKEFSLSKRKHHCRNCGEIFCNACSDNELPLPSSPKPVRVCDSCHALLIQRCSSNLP
UniProt Q9NYV6: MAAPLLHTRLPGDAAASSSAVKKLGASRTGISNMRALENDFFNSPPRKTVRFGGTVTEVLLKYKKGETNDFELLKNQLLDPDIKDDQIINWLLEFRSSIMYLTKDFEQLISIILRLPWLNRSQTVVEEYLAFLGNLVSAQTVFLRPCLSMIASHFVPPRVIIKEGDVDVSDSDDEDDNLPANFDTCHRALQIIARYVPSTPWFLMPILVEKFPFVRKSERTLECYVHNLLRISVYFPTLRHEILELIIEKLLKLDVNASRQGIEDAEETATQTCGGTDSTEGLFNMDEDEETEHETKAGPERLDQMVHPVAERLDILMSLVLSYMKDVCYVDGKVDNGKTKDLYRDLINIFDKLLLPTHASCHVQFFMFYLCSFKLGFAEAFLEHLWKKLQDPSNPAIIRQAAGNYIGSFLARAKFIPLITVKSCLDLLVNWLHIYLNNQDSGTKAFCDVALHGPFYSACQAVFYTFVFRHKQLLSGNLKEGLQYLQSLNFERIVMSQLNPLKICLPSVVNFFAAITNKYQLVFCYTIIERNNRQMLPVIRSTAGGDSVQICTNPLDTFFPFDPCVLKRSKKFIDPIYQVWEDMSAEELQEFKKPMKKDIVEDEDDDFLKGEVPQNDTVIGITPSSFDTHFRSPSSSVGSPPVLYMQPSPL
UniProt Q92681: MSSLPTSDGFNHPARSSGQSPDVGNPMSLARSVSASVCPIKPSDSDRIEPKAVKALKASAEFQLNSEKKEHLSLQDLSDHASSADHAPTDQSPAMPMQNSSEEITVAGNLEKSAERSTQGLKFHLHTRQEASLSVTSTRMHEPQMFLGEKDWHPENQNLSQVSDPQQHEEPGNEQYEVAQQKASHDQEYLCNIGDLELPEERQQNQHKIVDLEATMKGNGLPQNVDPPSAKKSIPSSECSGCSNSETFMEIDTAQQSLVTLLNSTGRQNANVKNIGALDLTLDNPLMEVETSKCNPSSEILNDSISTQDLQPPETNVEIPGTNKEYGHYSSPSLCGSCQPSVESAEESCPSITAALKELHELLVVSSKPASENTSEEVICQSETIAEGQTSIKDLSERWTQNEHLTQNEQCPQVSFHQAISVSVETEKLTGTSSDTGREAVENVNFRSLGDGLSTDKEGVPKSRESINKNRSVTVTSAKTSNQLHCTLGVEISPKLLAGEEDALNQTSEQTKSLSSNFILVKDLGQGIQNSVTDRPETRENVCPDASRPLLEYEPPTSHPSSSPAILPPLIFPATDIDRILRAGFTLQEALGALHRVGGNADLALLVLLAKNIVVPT
UniProt Q86WX3: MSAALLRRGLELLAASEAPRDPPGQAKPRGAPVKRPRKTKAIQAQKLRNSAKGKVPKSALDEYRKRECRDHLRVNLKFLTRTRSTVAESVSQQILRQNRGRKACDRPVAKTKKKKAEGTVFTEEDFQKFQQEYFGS
UniProt Q96EU6: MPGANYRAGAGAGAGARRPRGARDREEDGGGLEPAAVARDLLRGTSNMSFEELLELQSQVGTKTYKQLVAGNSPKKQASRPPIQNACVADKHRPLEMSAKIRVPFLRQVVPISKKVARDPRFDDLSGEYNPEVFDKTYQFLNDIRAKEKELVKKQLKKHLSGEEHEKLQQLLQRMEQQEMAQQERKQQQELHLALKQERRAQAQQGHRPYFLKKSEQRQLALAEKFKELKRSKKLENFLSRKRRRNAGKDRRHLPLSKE
UniProt Q9HCY8: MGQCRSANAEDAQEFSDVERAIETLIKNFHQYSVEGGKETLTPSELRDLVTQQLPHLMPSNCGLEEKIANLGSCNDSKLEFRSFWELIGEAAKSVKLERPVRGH
UniProt P51812, whole entry, looked up: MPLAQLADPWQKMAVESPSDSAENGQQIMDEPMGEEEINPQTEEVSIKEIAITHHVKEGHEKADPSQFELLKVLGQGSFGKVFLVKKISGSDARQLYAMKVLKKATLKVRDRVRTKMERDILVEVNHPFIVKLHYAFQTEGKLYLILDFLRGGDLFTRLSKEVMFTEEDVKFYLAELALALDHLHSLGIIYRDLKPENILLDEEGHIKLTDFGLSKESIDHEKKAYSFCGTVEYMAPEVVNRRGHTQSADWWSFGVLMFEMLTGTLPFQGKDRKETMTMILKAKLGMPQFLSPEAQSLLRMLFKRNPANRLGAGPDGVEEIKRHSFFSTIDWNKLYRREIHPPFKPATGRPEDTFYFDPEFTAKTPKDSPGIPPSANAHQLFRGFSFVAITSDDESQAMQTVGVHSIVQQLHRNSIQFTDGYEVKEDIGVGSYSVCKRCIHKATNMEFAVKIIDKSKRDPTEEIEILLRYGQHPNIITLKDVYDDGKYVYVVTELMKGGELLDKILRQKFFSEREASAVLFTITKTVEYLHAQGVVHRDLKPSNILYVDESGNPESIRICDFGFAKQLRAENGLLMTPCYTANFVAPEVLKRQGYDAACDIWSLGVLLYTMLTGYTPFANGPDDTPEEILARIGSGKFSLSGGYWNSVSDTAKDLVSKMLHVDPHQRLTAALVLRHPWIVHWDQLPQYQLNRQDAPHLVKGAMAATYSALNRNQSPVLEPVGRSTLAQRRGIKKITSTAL

Compound: COc1cc(Nc2ncc3c(n2)-c2ccc(Cl)cc2C(c2c(F)cccc2OC)=NC3)ccc1C(=O)O [alisertib]
Assay: log2 fold change, soluble protein after heating vs DMSO (PISA); higher = thermal stabilisation; K562 lysate, 10 uM; active = over 0.2 and 3.5 SD of the protein, either way, in both replicates (recomputed)
How it was run: (§1)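 Soluble protein was defined as the supernatant remaining after 21,000xg for 90 min, following pooling of heated aliquots and adjustment to 0.5% NP-40 at 4°C. Before that, crude K562 extract at 1 mg/mL protein in PBS pH 7.4 with 1 mM MgCl2 was treated with 10 μM compound for 30 min and heated for 3 min across 48°C-58°C. Quantification used TMTpro 16plex LC-MS/MS with channel sums equalised, and values are log-two fold changes in thermal stability relative to solvent controls from duplicates.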

log2 fold change, inactive:
RPS15, A0A0B4J2B4 -0.12
RXYLT1 (UniProt Q9Y2B1) 0.004
RPSA (UniProt F8WD59) -0.363
RXRB isoform 3 (UniProt P28702) -0.044
RTL8C (UniProt A6ZKI3) 0.09
RPS6KB2 (UniProt Q9UBS0) 0.013
RPUSD3 (UniProt Q6P087) -0.012
RWDD2B (UniProt P57060) 0.047
S100A16 (UniProt Q96FQ6) -0.079
RTEL1 isoform 2 (UniProt Q9NZ71) -0.049
S100A10 (UniProt P60903) 0.026
RUFY2 isoform 1 (UniProt Q8WXA3) 0.003
RRN3 (UniProt Q9NYV6) -0.044
RSC1A1 (UniProt Q92681) 0.052

Compound: COc1cc2nc(-c3cc(F)ccc3O)nc(N[C@@H]3CNC[C@H]3C(C)(C)O)c2cc1OC
Assay: as above
How it was run: as §1

log2 fold change, inactive:
RPS15, A0A0B4J2B4 0.077
RPS19BP1 (UniProt Q86WX3) 0.077
RPS7, A0A2R8Y623 -0.114
RXYLT1 (UniProt Q9Y2B1) 0.22
RRP36 (UniProt Q96EU6) 0.056
RXRB isoform 3 (UniProt P28702) 0.073
S100A14 (UniProt Q9HCY8) -0.15
RPS6KB2 (UniProt Q9UBS0) -0.063
RPS6KA3 (UniProt P51812) 0.049
RWDD2B (UniProt P57060) -0.03
S100A16 (UniProt Q96FQ6) 0.069
RRN3 (UniProt Q9NYV6) 0.02

Compound: COc1cc2ncnc(Nc3ccc(F)c(Cl)c3)c2cc1OCCCN1CCOCC1 [gefitinib]
Assay: as above
How it was run: as §1

log2 fold change, inactive:
RPS15, A0A0B4J2B4 -0.128
RXYLT1 (UniProt Q9Y2B1) -0.088
RPSA (UniProt F8WD59) 0.041
RXRB isoform 3 (UniProt P28702) 0.047
RTL8C (UniProt A6ZKI3) -0.011
RPS6KB2 (UniProt Q9UBS0) -0.037
RPS6KA3 (UniProt P51812) -0.025
RPUSD3 (UniProt Q6P087) 0.059
RWDD2B (UniProt P57060) -0.054
S100A16 (UniProt Q96FQ6) 0.542
RTEL1 isoform 2 (UniProt Q9NZ71) 0.083
S100A10 (UniProt P60903) 0.133
RUFY2 isoform 1 (UniProt Q8WXA3) 0.053
RRN3 (UniProt Q9NYV6) 0.127
RSC1A1 (UniProt Q92681) 0.072
